Results are given in words; binding and its absence hold for the method and conditions named. Some entries that bind do so weakly or less than the wild type.
Columns and labels:
[1] = target: hAng2-biotin (R&D, Catalog No. BT623B/CF) (human) (UniProt O15123); assay: Blocking ELISA: Tie2-Fc coated, hAng2-biotin pre-incubated with the antibody, Avidin HRP, OD450-OD620
[2] = target: hAng2-biotin (R&D, Catalog No. BT623B/CF) (human) (UniProt O15123); assay: blocking ELISA: Tie2-Fc coated, Ang2-Bio (R&D) in solution
[3] = target: hAng2-Fc (Beijing Sino Biological, Catalog No. 10691-H02H) (human) (UniProt O15123); assay: condition: about log 2.6 on the axis Conc log(nM) (400 nM maximum final concentration per paragraph 212); Flow cytometry blocking: hAng2-Fc pre-incubated with the antibody, 293-Tie2 cells, Mean-PE-A
[4] = target: hAng2-biotin (R&D, Catalog No. BT623B/CF) (human) (UniProt O15123); assay: condition: about log 2.5 on the axis Conc. log(nM) (300 nM maximum per paragraph 208); Blocking ELISA: hTie2 coated, biotinylated hAng2 pre-incubated with the antibody, OD450-OD620
[5] = target: biotin-labeled VEGF A165 (ACRO, Catalog No. VE5-H8210) (human) (UniProt P15692); assay: condition: about log 2.2 on the axis Conc log(ug/ml) (150 ug/mL initial concentration per paragraph 172); Blocking ELISA: biotin-VEGF A165 captured, VEGFR-Fc as the blocked receptor, OD450nm
[6] = target: hAng2-biotin (R&D, Catalog No. BT623B/CF) (human) (UniProt O15123); assay: condition: about log 0.7 on the axis Conc log (ug/ml) (about 5 ug/ml); Blocking ELISA: Tie2-Fc coated, hAng2-biotin pre-incubated with the antibody, OD450-OD620
[7] = target: hAng2-Fc (Beijing Sino Biological, Catalog No. 10691-H02H) (human) (UniProt O15123); assay: condition: about log 2.6 on the axis Conc. log(nM) (400 nM maximum final concentration per paragraph 212); Flow cytometry blocking: hAng2-Fc pre-incubated with the antibody, 293-Tie2 cells, Mean PE-A
[8] = target: hAng2-biotin (R&D, Catalog No. BT623B/CF) (human) (UniProt O15123); assay: blocking ELISA: Tie2-Fc coated, Ang2-biotin in solution
[9] = target: hAng2-biotin (R&D, Catalog No. BT623B/CF) (human) (UniProt O15123); assay: blocking ELISA (legend of FIGS. 9A-9B)
[10] = target: hAng2-Fc (Beijing Sino Biological, Catalog No. 10691-H02H) (human) (UniProt O15123); assay: flow cytometry blocking assay: hAng2-Fc on 293-Tie2 cells
[11] = target: hAng2-Fc (Beijing Sino Biological, Catalog No. 10691-H02H) (human) (UniProt O15123); assay: flow cytometry blocking assay (legend of FIGS. 10A-10B)
[12] = target: hAng2-biotin (R&D, Catalog No. BT623B/CF) (human) (UniProt O15123); assay: blocking ELISA: hTie2 coated, biotinylated hAng2 in solution

Sequences of proteins named here, by UniProt entry; tags and fusion partners are left off. A change or cut given only in a name is not applied to a line headed by its entry. A line that says so, or that is headed by a name, gives the form on record, which may keep a tag or linker. Residues count along the entry.
UniProt O15123: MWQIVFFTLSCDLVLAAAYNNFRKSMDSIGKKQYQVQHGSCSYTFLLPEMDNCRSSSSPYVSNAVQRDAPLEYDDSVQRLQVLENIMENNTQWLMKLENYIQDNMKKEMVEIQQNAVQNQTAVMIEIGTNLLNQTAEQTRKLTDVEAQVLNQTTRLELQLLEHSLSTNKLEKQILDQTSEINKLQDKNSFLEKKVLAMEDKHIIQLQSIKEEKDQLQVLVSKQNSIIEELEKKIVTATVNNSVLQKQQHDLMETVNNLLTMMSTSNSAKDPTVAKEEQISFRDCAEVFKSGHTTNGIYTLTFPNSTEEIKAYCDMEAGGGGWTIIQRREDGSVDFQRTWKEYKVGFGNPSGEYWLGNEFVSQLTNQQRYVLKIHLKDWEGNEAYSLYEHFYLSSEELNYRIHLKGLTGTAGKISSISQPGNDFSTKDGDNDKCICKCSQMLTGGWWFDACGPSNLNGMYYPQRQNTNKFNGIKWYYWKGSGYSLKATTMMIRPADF
hAng2-Fc (Beijing Sino Biological, Catalog No. 10691-H02H): residues 19-496 of O15123
hAng2-biotin (R&D, Catalog No. BT623B/CF): residues 68-496 of O15123
biotin-labeled VEGF A165 (ACRO, Catalog No. VE5-H8210) (P15692, form named): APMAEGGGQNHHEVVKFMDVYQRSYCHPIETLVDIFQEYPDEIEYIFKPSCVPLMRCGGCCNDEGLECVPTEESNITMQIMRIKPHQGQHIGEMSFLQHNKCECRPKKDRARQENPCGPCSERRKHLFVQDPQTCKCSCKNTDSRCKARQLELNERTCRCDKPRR

B1: LA24C11.10 (Ang2 VHH) (VHH)
VHH: EVQLLESGGGLVQPGGSLRLSCAASGFALDYYAIGWFRQAPGKGLEGVSCISSGEGSTYYADSVKGRFTISRDNSKNTVYLQMNSLRAEDTAVYYCATDSRGDDVACEGLRRNEYDYWGQGTLVTVSS
- binding [1]: binds
- binding [2]: binds

B2: IgG (antibody, V domains shown)
VH: EVRLLESGGGLVQPGGSLRLSCAASGFTFSNYAMGWVRQAPGKGLEWVSAISGSGGSTYYADSVKGRFTTSRDDSKNALYLQMNSLRAEDTAVYYCARGGPGWYAADVWGQGTTVTVSS
VL: DIQMTQSPSSLSASVGDRVTITCRASQSISSYLNWYQQKPGKAPKLLIYAASSLQSGVPSRFSGSGSGTDFTLTISSLQPEDFATYYCQQADLPAFAFGGGTKVEIKR
- binding [3]: no binding
- binding [4]: no binding
- binding [5]: no binding
- binding [6]: no binding
- binding [7]: no binding

B3: LA24C11 (Ang2 VHH) (VHH)
VHH: QVQLVESGGGLVQPGGSLRLSCAASGFALDYYAIGWFRQAPGKEREGVSCISSGDGSTYYADSVKGRFTISRDNAKNTVYLQMNSLKPEDTAVYYCATDSRGDDVACEGLRRNEYDYWGQGTQVTVSS
- binding [8]: binds

B4: IEX04-008 (bispecific antibody)
chain: EVQLLESGGGLVQPGGSLRLSCAASGSIFSINAMGWHRQAPGKQRELVATMIGGSSTFYAESVQGRFTISRDNSKNTVYLQMNSLRAEDTAVYYCYADVTGRSGTSIWNKRDDYWGQGTQVTVSSGGGGSGGGGSEVQLLESGGGLVQPGGSLRLSCAASGSIFSINAMGWHRQAPGKQRELVATMIGGSSTFYAESVQGRFTISRDNSKNTVYLQMNSLRAEDTAVYYCYADVTGRSGTSIWNKRDDYWGQGTQVTVSSGGGGSGGGGSEVQLLESGGGLVQPGGSLRLSCAASGFALDYYAIGWFRQAPGKGLEGVSCISSGEGSTYYADSVKGRFTISRDNSKNTVYLQMNSLRAEDTAVYYCATDSRGDDVACEGLRRNEYDYWGQGTLVTVSS
- binding [9]: binds
- binding [10]: binds
- binding [11]: binds
- binding [12]: binds

From patent US20260274937A1
